± gives the standard deviation. The list shows a part of the results, in another mix than the full data. Many entries were measured with a wide error.
Key:
[1] = tested on: MIWI (PIWIL1) piRISC loaded with piRNA #1 (30 nt); experiment: pre-steady-state target cleavage rate (min^-1); higher = faster piRNA-guided slicing of the target; details: guide: piRNA #1 5'p-UGAGGUAGUAGGUUGUAUAGUAUCCAGAGG; auxiliary factor: 500 nM mouse GTSF1
Outline: (§1)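 Cleave-'n-Seq: a transcribed, DNA-blocked target RNA library (0.1 nM) was mixed with 1 nM active affinity-purified piRISC carrying one synthetic guide, with or without 500 nM GTSF1 partner protein, in HEPES–potassium acetate buffer at 33 °C for 0–8 or 0–960 min. Uncleaved targets were sequenced and normalised to depth and to weakly complementary targets. Three trials were pooled, and k3 was capped at 0.0001 min^-1. The pre-steady-state cleavage rate came from a burst-and-steady-state fit.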

[2] = tested on: EfPiwi piRISC loaded with piRNA #1 (26 nt); experiment: pre-steady-state target cleavage rate (min^-1); guide: piRNA #1 5'p-UGAGGUAGUAGGUUGUAUAGUAUCCA; MIWI and MILI are mouse PIWI proteins and EfPiwi is from a freshwater sponge; tags in brackets are library labels; higher = faster piRNA-guided slicing of the target; details: auxiliary factor: 500 nM Ephydatia muelleri Gtsf1
Outline: as §1

Row | Sequence | pre-steady-state target cleavage rate [1] | pre-steady-state target cleavage rate [2]
1 | GGAGACCUAUGAAUACAAGCUACUACCACA | 0.000336 ± 0.0056 | 0.000154 ± 0.021
2 | GGAGACCUAUGAUAUGUUGCUACUACGAGA | 0.000448 ± 0.016 | 0.00108 ± 0.0053
3 | GGAGACCUAUGAUAUCAAGCUACUACCACA | 0.0002 ± 0.011 | 0.000178 ± 0.018
4 | GGAGACCUAUGAUAAGCAACCUACUACCUCA | 0.00106 ± 0.0057 | 0.00111 ± 0.0071
5 | GGAGACCUAUGAUAACAAGCUACUACCACA | 0.000834 ± 0.0062 | 0.000184 ± 0.015
6 | GGAGACCUAUGAUUACAACCUACUACCUCU [g2:g17:cont:t1U] | 0.00175 ± 0.0044 | 0.732 ± 0.29
7 | GGAGACCUAUGAUAUCAACGCUACUACCUCA | 0.000107 ± 0.021 | 0.00103 ± 0.0072
8 | GGAGACCUAACUUAUCAACCUACUACCUCA | 0.00263 ± 0.0063 | 0.00155 ± 0.0068
9 | GGAGACGAUACAAUACAACCUUCUACCUCA | – | 0.00327 ± 0.0022
10 | GGAGACCUAACUAUACAACCUACUACCUA | – | 0.0706 ± 0.025
11 | GGAGAGGAUAGAUUACAACCUACUACCUCA | – | 0.00319 ± 0.0051
12 | GGAGAGGAUACUAUACUACCUACUACCACA | – | 0.00174 ± 0.002
13 | GGAGACGAUAGUAUACAACCUACUACCACA | – | 0.00203 ± 0.0032
14 | GGAGACCUUAGUAUACUACCUACUACCUCA | – | 0.0029 ± 0.0042
15 | GGAGACCUAUGUAUACAACCUACAACCUCA | – | 0.00161 ± 0.0047
16 | GGAGACCUAUGAUAUGAACGUACUAGCUCA | – | 0.000207 ± 0.02
17 | GGAGAGGAUACAAUACAACCUACUAGCUCA | – | 0.00253 ± 0.0018
18 | GGAGACCUAACUUUACAACCUAGUACCUCA | – | 0.00417 ± 0.0038
19 | GGAGACCUAUCUAUGACAACCUACUACCUCA | – | 0.00594 ± 0.0037

Given with each value named: entries from further up
GGAGACCUAACUUAUCAACCUACUACCUCA
  pre-steady-state target cleavage rate [1]: 0.00263 ± 0.0063; pre-steady-state target cleavage rate [2]: 0.00155 ± 0.0068
GGAGACGAUACAAUACAACCUUCUACCUCA
  pre-steady-state target cleavage rate [2]: 0.00327 ± 0.0022

Carrying on:

Row | Sequence | pre-steady-state target cleavage rate [1] | pre-steady-state target cleavage rate [2]
20 | GGAGACCAUACUAAACAACCUACAACCUCA | – | 0.000693 ± 0.0062
21 | GGAGACCUAUGAUUACAACCUACUAGGUCA | – | 0.00089 ± 0.0052
22 | GGAGACCAUACUAUUCAACCUACUUCCUCA | – | 0.00483 ± 0.0048
23 | GGAGUGGAUACUAUACUUGCUACUACCUCA | – | 0.00165 ± 0.0042
24 | GGAGUGGAUACUUAACAACCUACUACCUCA | – | 0.0027 ± 0.0043
25 | GGAGACCUAACUAUAUCAACCUACUACCUCA | – | 0.00397 ± 0.0043
26 | GGAGAGGAUACUCUACAACCUACUACCUCA | – | 0.00431 ± 0.0033
27 | GGAGAGGAUACUAUACAACCUACUACCGCA | – | 0.00593 ± 0.0021
28 | GGAGACCUUACUAUAACAACCUACUACCUCA | – | 0.00893 ± 0.0047
29 | GGAGUGGAUACUAUAGAACCUACAACCUCA | – | 0.00234 ± 0.0015
30 | GGAGACCUAUGUAUACAACCUCCUACCUCA | – | 0.00207 ± 0.0047
31 | GGAGACCUUACUAUACAACCUACAAGCUCA | – | 0.000919 ± 0.0087
32 | GGAGACCUAUCUAUUGAACCUACUACCUCA | – | 0.000822 ± 0.0077
33 | GGAGAGGAUAGUAUACAACCUACUAGCUCA | – | 0.00348 ± 0.0023
34 | GGAGAGCAUACUUUACAACCUACUACCUCA | – | 0.0083 ± 0.0045
35 | GGAGACCUAACUAUACUACCUACAACCUCA | – | 0.00129 ± 0.0063
36 | GGAGUGGAUUCUAUACAACCUACAACCUCA | – | 0.00183 ± 0.0023
37 | GGAGUGGAUAGUAUUCAACCUACUACCUCA | – | 0.00162 ± 0.0047
38 | GGAGACGAUACAAUACAACCUACUACCUGA | – | 0.0025 ± 0.0015

Row | Sequence | pre-steady-state target cleavage rate [1] | pre-steady-state target cleavage rate [2]
39 | GGAGACCUUACUAUACAACCUACUAUCCUCA | – | 0.00296 ± 0.0038
40 | GGAGACCUAAGUAUACAACGUACUACCUCA | – | 0.00282 ± 0.0036
41 | GGAGACCUAACUAAACAACCUAGUACCUCA | – | 0.00226 ± 0.0038
42 | GGAGACGAAACUAUAGAACCUACUACCUCA | – | 0.00291 ± 0.0044
43 | GGAGUGGAUACUAUAGAACCUACUACCUGA | – | 0.00222 ± 0.0011
44 | GGAGACCUAUGAUAUGUUGGUAGAUCCUCA | – | 0.000338 ± 0.012
45 | GGAGAGGUUACUAUACAACCUACUACCUCA | – | 0.0625 ± 0.025
46 | GGAGACCUUAGUAUACAACCUACAACCUCA | – | 0.00245 ± 0.0047
47 | GGAGACCUAACUAUACUACGUACUACCUCA | – | 0.00178 ± 0.0047
48 | GGAGAGGAUACUAUACAACCUACUUGCUCA | – | 0.00478 ± 0.0023
49 | GGAGACCUAUCAAUACAAGCUACUACCUCA | – | 0.00234 ± 0.0049
50 | GGAGACCUAUCUAUACAACGUACUAGCUCA | – | 0.0017 ± 0.0059
51 | GGAGACGAUACAAUACAACCUACUUCCUCA | – | 0.00147 ± 0.0023
52 | GGAGACCUAACUAAAGAACCUACUACCUCA | – | 0.000231 ± 0.014
53 | GGAGACCUAUCUAACAACCUACUACCUCA | – | 0.00237 ± 0.0045
54 | GGAGACCUAUCUAUACAUGCUACUACCUCA | – | 0.00132 ± 0.0035
55 | GGAGAGGUUAGUAUACAACCUACUACCUCA | – | 0.00354 ± 0.0036
56 | GGAGACCUAUGAUAUGUUGCUACUACCUACA | – | 0.000346 ± 0.0066

Source: the supplement of paper PMC10338343
